# Test results taken from US20240016892A1.
# Results are given in words; binding and its absence hold for the method and conditions named. Some binding calls cover weakened binding; strength is not graded here. Sequences can lack the tags named with a protein.
# B1: human TIGIT-Fc-LIGHT chimeric protein (Fc fusion)
# chain: MMTGTIETTGNISAEKGGSIILQCHLSSTTAQVTQVNWEQQDQLLAICNADLGWHISPSFKDRVAPGPGLGLTLQSLTVNDTGEYFCIYHTYPDGTYTGRIFLEVLESSVAEHGARFQIPSKYGPPCPPCPAPEFLGGPSVFLFPPKPKDQLMISRTPEVTCVVVDVSQEDPEVQFNWYVDGVEVHNAKTKPREEQFNSTYRVVSVLTVLHQDWLSGKEYKCKVSSKGLPSSIEKTISNATGQPREPQVYTLPPSQEEMTKNQVSLTCLVKGFYPSDIAVEWESNGQPENNYKTTPPVLDSDGSFFLYSRLTVDKSRWQEGNVFSCSVLHEALHNHYTQKSLSLSLGKIEGRMDLQLHWRLGEMVTRLPDGPAGSWEQLIQERRSHEVNPAAHLTGANSSLTGSGGPLLWETQLGLAFLRGLSYHDGALVVTKAGYYYIYSKVQLGGVGCPLGLASTITHGLYKRTPRYPEELELLVSQQSPCGRATSSSRVWWDSSFLGGVVHLEAGEKVVVRVLDERLVRLRDGTRSYFGAFMV
# Target: FCγR2A (CD32)
# Test: MSD receptor binding assay, FCγR2A (CD32); drug at 10 µg/mL
binder,measurement,value
B1,binding,binds
